No constants are given. Whether binding was seen depends on the method and setting. In cells and extracts the contact can be indirect. A yes stands for co-enrichment or nearness to the bait. Other partners may have been found.
Target: RLIP (bait of the mass spectrometry analysis)
Assay: affinity purification with mass spectrometry; liquid chromatography/electrospray ionization tandem mass spectrometry of proteins interacting with RLIP; how the complexes were isolated is not told

binding | Binder
binds | Reps1 (identified by mass spectrometry) (protein, UniProt Q96D71 1-796) MEGLTLSDAEQKYYSDLFSYCDIESTKKVVVNGRVLELFRAAQLPNDVVLQIMELCGATRLGYFGRSQFYIALKLVAVAQSGFPLRVESINTVKDLPLPRFVASKNEQESRHAASYSSDSENQGSYSGVIPPPPGRGQVKKGSVSHDTVQPRTSADAQEPASPVVSPQQSPPTSPHTWRKHSRHPSGGNSERPLAGPGPFWSPFGEAQSGSSAGDAVWSGHSPPPPQENWVSFADTPPTSTLLTMHPASVQDQTTVRTVASATTAIEIRRQSSSYDDPWKITDEQRQYYVNQFKTIQPDLNGFIPGSAAKEFFTKSKLPILELSHIWELSDFDKDGALTLDEFCAAFHLVVARKNGYDLPEKLPESLMPKLIDLEDSADVGDQPGEVGYSGSPAEAPPSKSPSMPSLNQTWPELNQSSEQWETFSERSSSSQTLTQFDSNIAPADPDTAIVHPVPIRMTPSKIHMQEMELKRTGSDHTNPTSPLLVKPSDLLEENKINSSVKFASGNTVADGYSSSDSFTSDPEQIGSNVTRQRSHSGTSPDNTAPPPPPPRPQPSHSRSSSLDMNRTFTVTTGQQQAGVVAHPPAVPPRPQPSQAPGPAVHRPVDADGLITHTSTSPQQIPEQPNFADFSQFEVFAASNVNDEQDDEAEKHPEVLPAEKASDPASSLRVAKTDSKTEEKTAASAPANVSKGTTPLAPPPKPVRRRLKSEDELRPEVDEHTQKTGVLAAVLASQPSIPRSVGKDKKAIQASIRRNKETNTVLARLNSELQQQLKDVLEERISLEVQLEQLRPFSHL
binds | POB1/Reps2 (protein, UniProt Q8NFH8 1-660) MEAAAAAAAAAAAAAAAGGGCGSGPPPLLLSEGEQQCYSELFARCAGAAGGGPGSGPPEAARVAPGTATAAAGPVADLFRASQLPAETLHQITELCGAKRVGYFGPTQFYIALKLIAAAQSGLPVRIESIKCELPLPRFMMSKNDGEIRFGNPAELHGTKVQIPYLTTEKNSFKRMDDEDKQQETQSPTMSPLASPPSSPPHYQRVPLSHGYSKLRSSAEQMHPAPYEARQPLVQPEGSSSGGPGTKPLRHQASLIRSFSVERELQDNSSYPDEPWRITEEQREYYVNQFRSLQPDPSSFISGSVAKNFFTKSKLSIPELSYIWELSDADCDGALTLPEFCAAFHLIVARKNGYPLPEGLPPTLQPEYLQAAFPKPKWDCQLFDSYSESLPANQQPRDLNRMEKTSVKDMADLPVPNQDVTSDDKQALKSTINEALPKDVSEDPATPKDSNSLKARPRSRSYSSTSIEEAMKRGEDPPTPPPRPQKTHSRASSLDLNKVFQPSVPATKSGLLPPPPALPPRPCPSQSEQVSEAELLPQLSRAPSQAAESSPAKKDVLYSQPPSKPIRRKFRPENQATENQEPSTAASGPASAATMKPHPTVQKQSSKQKKAIQTAIRKNKEANAVLARLNSELQQQLKEVHQERIALENQLEQLRPVTVL

— article PMC3297634
